Data reported in paper doi:10.1101/2024.01.26.577166.
These are yes or no findings as the source states them, for the method shown. For part of these data: In cells and extracts the contact can be indirect. Some binding calls cover weakened binding; strength is not graded here. Tags and fused reporters may be left off the sequences shown.

The chains behind the UniProt entries cited, without tags or fusion partners.
UniProt Q9SSA8: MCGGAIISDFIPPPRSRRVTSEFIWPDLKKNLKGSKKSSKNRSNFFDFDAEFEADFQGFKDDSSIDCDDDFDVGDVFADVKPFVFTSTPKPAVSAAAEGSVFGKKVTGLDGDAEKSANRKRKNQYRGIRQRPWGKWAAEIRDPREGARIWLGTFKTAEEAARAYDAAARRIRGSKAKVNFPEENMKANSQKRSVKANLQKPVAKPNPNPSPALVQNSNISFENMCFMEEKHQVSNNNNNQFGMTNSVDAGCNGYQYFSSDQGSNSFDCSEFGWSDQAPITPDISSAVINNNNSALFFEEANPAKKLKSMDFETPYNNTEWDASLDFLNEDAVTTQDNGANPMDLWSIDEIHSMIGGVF
UniProt Q8H0T5: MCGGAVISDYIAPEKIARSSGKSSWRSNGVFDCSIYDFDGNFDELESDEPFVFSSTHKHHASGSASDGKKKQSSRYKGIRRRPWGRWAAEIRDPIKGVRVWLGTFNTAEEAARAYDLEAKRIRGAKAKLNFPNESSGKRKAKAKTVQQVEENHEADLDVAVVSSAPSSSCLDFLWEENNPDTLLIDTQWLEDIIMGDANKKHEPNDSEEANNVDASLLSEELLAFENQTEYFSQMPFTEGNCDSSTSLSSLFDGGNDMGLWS
UniProt Q9LUM4: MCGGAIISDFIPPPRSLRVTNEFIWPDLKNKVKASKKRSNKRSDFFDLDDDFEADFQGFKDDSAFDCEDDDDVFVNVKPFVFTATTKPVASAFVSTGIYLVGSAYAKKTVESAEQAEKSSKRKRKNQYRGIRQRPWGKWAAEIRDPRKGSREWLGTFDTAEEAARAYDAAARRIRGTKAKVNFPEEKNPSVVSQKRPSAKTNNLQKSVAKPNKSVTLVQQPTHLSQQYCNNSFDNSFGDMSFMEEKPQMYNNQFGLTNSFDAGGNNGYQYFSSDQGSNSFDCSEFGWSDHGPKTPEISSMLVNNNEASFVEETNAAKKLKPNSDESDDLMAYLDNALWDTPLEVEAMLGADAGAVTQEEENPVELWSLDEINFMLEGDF
UniProt O22259: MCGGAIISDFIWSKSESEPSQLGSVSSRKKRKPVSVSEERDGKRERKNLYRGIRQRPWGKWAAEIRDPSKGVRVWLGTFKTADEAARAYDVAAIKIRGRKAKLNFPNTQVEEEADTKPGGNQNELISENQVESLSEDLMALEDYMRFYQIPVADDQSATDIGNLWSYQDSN
UniProt P42736: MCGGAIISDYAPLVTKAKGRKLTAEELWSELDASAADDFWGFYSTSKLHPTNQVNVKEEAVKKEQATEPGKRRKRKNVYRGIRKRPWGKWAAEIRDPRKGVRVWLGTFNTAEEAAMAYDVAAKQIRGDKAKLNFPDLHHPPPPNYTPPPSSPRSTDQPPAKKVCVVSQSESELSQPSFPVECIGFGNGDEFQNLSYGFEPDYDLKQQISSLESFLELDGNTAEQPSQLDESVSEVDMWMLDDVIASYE

Assays:
[1] = molecular target: T1, AtMED25-nYFP (Arabidopsis protoplasts) (Arabidopsis thaliana) (UniProt Q7XYY2); assay: split reporter
T1 sequence: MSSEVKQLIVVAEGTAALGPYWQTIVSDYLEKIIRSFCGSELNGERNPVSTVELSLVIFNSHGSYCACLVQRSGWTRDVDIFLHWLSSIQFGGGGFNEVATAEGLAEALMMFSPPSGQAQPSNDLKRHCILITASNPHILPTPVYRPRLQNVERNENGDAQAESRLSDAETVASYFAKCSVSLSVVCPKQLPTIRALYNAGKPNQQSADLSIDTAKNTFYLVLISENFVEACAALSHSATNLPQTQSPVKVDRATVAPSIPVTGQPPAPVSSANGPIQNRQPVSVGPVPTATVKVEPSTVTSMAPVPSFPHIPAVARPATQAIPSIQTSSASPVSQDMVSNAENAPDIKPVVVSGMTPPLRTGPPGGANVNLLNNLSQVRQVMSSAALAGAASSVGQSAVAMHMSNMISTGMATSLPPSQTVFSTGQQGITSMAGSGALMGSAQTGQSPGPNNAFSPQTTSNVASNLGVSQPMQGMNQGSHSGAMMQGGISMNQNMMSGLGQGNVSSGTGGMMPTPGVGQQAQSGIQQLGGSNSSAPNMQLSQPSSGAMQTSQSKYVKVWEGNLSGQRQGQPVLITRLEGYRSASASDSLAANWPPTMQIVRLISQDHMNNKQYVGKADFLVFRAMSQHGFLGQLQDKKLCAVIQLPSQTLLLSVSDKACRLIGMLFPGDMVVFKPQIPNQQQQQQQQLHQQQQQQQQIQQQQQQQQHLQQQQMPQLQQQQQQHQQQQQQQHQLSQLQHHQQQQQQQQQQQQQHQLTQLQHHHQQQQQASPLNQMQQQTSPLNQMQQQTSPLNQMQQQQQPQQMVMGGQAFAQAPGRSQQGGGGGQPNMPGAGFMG

[2] = molecular target: T2, AtMED25 fused with the GAL4 DNA binding domain (full-length, pDEST32 bait) (Arabidopsis thaliana) (UniProt Q7XYY2); assay: two-hybrid
T2 sequence: T1 sequence

[3] = molecular target: T3, AtMED21 fused with the GAL4 DNA-binding domain (pDEST32 bait) (Arabidopsis thaliana) (UniProt C0LU16); assay: two-hybrid
T3 sequence: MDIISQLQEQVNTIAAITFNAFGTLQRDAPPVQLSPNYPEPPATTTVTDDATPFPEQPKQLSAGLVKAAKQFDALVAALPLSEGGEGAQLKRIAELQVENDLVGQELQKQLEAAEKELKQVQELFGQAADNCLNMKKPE

| Substance | binding [1] | binding [2] | binding [3] |
| --- | --- | --- | --- |
| RAP2.12-cYFP (from UniProt Q9SSA8 1-358) | binds | – | – |
| HRE1 fused with the GAL4 activation domain (pDEST22 prey) (from UniProt Q8H0T5 1-262) | – | no binding | – |
| RAP2.12 fused with the GAL4 activation domain (full-length, pDEST22 prey) (from UniProt Q9SSA8 1-358) | – | binds | no binding |
| RAP2.2 fused with the GAL4 activation domain (full-length, pDEST22 prey) (from UniProt Q9LUM4 1-379) | – | binds | no binding |
| RAP2.2-cYFP (from UniProt Q9LUM4 1-379) | binds | – | – |
| HRE2 fused with the GAL4 activation domain (pDEST22 prey) (from UniProt O22259 1-171) | – | no binding | – |
| RAP2.3 fused with the GAL4 activation domain (pDEST22 prey) (from UniProt P42736 1-248) | – | no binding | – |
